# Assay results as given in US20240207402A1, “MEANS AND METHODS FOR ENHANCING RECEPTOR-TARGETED GENE TRANSFER” (Deutsches Krebsforschungszentrum Stiftung des öffentlichen …, priority 2021, published 2024).
# For at least one compound, name, drawing or mass did not settle the structure.
# Assays:
# activated PBMC [1] = experiment: Comparison of tyrosine kinase inhibitors on targeted LV transduction of activated PBMC; type: cell-based, human; conditions: 50 nM dasatinib or 1 μM bosutinib, 5 h, GFP three days post transduction
# activated PBMC [2] = experiment: Transduction of fully activated PBMC with targeted LVs in presence of dasatinib (GFP expression, flow cytometry); type: cell-based, human; conditions: in vitro (summary)
smiles,measurement,setting,value
"COc1cc(Nc2c(C#N)cnc3cc(OCCCN4CCN(C)CC4)c(OC)cc23)c(Cl)cc1Cl [bosutinib, 4˜[(2,4-dichloro-5-methoxyphenyl)amino]-6-methoxy-7-[3-(4-methylpiperazin-1-yl)propoxy]quinoline-3-carbonitrile]","increase of transgene expression, transduction with CD3-LV",activated PBMC [1],4 fold
same,effect of pretreatment on cell-directed gene transfer using CD3-LVs,activated PBMC [2],dramatically increases
